# Measured values: article PMC11047619
# By UniProt entry, the sequences of proteins in these tests, tags left out.
# UniProt Q8R4B8: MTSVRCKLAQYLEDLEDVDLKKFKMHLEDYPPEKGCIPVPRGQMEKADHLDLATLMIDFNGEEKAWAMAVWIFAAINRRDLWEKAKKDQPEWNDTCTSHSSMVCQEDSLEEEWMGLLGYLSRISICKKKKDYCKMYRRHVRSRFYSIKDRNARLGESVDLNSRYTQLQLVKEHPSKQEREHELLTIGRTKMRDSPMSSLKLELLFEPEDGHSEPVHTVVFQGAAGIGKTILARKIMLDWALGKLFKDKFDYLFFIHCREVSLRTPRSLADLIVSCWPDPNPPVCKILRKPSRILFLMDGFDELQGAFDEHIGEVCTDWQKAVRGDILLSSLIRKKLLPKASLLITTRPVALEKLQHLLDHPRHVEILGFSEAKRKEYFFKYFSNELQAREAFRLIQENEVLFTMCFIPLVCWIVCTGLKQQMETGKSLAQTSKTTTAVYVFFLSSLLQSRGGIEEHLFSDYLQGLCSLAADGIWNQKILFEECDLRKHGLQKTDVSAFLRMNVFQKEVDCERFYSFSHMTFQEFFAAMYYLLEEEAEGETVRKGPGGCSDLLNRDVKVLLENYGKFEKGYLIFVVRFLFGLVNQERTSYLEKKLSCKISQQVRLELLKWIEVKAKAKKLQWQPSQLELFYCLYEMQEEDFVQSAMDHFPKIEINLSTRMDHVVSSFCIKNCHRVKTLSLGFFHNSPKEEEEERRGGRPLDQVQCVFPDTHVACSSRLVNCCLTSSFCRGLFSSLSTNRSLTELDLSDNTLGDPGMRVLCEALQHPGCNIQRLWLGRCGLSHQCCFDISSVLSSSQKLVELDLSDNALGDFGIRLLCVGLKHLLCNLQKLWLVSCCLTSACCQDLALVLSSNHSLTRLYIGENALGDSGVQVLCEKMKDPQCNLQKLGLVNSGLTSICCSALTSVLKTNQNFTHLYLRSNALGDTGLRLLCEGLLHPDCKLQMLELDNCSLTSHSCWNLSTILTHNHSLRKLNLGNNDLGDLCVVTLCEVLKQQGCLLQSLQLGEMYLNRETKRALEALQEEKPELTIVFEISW
# UniProt Q96P20: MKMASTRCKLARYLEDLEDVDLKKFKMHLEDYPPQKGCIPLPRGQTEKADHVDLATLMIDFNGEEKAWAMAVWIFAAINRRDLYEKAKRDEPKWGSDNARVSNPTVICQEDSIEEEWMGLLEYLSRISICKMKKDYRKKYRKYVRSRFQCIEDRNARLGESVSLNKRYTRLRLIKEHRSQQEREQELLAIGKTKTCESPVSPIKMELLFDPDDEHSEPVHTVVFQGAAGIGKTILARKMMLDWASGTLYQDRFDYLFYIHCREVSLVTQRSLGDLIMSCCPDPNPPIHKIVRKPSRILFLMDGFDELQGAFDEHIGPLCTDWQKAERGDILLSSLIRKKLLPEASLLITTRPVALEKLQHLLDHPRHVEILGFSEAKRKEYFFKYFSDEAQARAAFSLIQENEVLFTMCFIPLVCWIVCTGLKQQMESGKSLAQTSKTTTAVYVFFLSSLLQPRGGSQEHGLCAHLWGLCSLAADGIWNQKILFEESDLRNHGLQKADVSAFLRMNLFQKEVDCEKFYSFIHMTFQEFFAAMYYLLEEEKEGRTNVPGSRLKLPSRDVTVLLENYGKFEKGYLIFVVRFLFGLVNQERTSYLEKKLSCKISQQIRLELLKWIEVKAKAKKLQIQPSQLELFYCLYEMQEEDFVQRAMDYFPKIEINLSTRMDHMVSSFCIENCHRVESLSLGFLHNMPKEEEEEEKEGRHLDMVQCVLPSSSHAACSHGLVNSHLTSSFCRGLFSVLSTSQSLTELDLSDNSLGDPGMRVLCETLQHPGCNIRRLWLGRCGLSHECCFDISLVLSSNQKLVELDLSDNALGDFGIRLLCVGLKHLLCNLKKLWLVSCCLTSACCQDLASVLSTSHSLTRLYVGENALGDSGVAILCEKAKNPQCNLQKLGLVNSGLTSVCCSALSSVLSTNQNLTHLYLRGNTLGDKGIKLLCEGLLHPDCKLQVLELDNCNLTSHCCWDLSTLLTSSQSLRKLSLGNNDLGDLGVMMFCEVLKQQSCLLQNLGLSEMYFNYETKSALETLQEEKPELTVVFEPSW
# No constants are given. Whether binding was seen depends on the method and setting. Binding seen in cells or lysates may run through a third protein. Some entries that bind do so weakly or less than the wild type.
# Assays:
# [1] = biological target: T1, thioredoxin-interacting protein (mouse skin) (mouse (endogenous in mouse skin)) (UniProt Q8BG60); experiment: co-IP; mouse skin homogenate in NP buffer (1 mg protein), precleared with A/G agarose beads; 1 ug TXNIP antibody overnight at 4 °C, protein A/G agarose; Western blot for NLRP3; mice with or without UV radiation and PT, EVE or PT and EVE treatment
# T1 sequence: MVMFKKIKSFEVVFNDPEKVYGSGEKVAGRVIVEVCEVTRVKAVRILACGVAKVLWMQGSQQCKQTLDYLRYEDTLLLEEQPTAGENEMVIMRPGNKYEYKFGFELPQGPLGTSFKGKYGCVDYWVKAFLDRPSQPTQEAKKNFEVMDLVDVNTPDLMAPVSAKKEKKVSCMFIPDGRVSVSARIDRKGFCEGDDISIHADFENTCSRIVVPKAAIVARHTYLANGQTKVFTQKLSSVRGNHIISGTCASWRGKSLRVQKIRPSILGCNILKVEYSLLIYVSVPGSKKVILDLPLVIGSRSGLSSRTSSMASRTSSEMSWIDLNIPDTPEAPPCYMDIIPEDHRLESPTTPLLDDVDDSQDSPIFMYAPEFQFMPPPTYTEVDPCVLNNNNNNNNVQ
# [2] = biological target: T2, thioredoxin-interacting protein (human (endogenous in HaCaT)) (UniProt Q9H3M7); experiment: co-IP; HaCaT keratinocyte lysate in NP buffer (1 mg protein), precleared with A/G agarose beads; 1 ug TXNIP antibody overnight at 4 °C, protein A/G agarose; Western blot for NLRP3; cells with or without UV radiation and PT, EVE or PT and EVE treatment
# T2 sequence: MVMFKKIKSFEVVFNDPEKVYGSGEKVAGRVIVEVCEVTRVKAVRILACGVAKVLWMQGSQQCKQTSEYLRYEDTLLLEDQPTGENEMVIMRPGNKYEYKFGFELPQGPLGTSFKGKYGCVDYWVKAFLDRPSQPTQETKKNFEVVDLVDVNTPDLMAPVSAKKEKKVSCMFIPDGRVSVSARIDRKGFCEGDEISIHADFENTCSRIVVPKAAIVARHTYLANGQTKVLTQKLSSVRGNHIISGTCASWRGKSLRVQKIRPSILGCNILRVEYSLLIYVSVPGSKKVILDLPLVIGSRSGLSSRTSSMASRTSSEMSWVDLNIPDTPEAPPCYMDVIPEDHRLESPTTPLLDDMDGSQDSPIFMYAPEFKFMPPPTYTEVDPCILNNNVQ
substance,measurement,setting,value
nucleotide-binding oligomerization domain-like receptor family pyrin domain containing 3 (mouse skin) (from UniProt Q8R4B8 1-1033),binding,[1],binds
nucleotide-binding oligomerization domain-like receptor family pyrin domain containing 3 (from UniProt Q96P20 1-1036),binding,[2],binds
